The list shows a part of the results.
Key:
Assay in all cases: log2 fold change, soluble protein after heating vs DMSO (PISA); higher = thermal stabilisation; K562 lysate, 10 uM; active = over 0.2 and 3.5 SD of the protein, either way, in both replicates (recomputed)
vemurafenib = compound: CCCS(=O)(=O)Nc1ccc(F)c(C(=O)c2c[nH]c3ncc(-c4ccc(Cl)cc4)cc23)c1F [vemurafenib]
Summary of the method: (§1)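 Values give the log-two fold change in thermal stability against solvent controls, from duplicates. Crude K562 extract at 1 mg/mL protein, made by dounce homogenisation in PBS pH 7.4 with 1 mM MgCl2, was treated with 10 μM compound for 30 min. After 3 min heating across 48°C-58°C, aliquots were pooled, adjusted to 0.5% NP-40 at 4°C and centrifuged at 21,000xg for 90 min. The supernatant was measured by TMTpro 16plex LC-MS/MS with channel sums equalised.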

The chains behind the UniProt entries cited, without tags or fusion partners. Where a name states a change or a piece, a line headed by the entry shows the natural chain unless it says otherwise.
UniProt P14649: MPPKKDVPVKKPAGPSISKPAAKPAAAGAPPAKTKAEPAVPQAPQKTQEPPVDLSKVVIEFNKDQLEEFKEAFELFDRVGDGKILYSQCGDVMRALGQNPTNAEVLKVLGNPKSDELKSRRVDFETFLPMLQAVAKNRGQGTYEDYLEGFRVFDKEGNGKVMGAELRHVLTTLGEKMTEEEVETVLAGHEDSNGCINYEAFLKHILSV
UniProt P55209: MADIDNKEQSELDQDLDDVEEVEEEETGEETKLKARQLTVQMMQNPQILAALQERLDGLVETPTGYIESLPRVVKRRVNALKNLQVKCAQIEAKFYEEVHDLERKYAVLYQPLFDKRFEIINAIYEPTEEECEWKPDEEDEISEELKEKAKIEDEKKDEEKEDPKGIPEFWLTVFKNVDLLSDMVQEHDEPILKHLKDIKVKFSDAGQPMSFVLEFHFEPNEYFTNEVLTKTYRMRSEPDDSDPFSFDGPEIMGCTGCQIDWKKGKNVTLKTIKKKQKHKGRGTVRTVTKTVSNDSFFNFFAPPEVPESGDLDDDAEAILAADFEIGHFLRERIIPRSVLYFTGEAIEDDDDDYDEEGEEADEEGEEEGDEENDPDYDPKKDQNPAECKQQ
UniProt Q96DR8: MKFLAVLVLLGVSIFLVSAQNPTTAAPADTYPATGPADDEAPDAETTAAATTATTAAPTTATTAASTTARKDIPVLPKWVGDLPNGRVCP
UniProt O95544: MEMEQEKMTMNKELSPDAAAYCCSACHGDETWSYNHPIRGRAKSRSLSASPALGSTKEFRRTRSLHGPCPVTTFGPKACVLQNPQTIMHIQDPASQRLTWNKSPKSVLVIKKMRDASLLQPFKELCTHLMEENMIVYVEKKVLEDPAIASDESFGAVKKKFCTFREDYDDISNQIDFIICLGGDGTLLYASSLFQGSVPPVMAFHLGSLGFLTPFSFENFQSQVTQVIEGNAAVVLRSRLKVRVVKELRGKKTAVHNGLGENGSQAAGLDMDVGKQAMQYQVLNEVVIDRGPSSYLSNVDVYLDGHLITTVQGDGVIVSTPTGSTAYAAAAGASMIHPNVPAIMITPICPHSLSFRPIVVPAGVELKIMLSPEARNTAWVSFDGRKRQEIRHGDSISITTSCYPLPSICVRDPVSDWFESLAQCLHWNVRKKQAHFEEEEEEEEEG
UniProt Q53F19: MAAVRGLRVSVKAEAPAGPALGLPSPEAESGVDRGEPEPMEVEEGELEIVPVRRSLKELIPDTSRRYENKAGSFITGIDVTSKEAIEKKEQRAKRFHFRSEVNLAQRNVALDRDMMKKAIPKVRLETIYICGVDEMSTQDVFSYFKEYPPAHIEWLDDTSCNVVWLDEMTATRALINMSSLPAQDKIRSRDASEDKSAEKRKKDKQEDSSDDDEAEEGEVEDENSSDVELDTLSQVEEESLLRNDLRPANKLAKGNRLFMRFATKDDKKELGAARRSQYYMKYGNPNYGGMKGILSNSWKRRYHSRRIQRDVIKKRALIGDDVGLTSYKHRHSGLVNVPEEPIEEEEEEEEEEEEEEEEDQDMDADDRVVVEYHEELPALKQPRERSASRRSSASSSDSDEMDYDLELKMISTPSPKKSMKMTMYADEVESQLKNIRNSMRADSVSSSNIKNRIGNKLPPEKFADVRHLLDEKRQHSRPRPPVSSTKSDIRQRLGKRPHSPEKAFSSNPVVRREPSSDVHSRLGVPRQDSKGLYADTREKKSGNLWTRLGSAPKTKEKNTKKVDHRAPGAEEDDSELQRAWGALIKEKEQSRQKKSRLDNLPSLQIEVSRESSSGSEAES
UniProt Q99417: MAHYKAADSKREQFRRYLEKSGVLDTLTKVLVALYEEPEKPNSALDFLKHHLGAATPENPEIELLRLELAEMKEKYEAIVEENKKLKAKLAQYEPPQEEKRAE
UniProt P52298: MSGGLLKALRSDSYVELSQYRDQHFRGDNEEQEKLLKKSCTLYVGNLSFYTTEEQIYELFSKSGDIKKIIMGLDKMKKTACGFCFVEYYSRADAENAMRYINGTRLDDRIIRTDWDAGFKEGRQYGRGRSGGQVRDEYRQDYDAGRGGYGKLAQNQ
UniProt P35580, whole entry, looked up: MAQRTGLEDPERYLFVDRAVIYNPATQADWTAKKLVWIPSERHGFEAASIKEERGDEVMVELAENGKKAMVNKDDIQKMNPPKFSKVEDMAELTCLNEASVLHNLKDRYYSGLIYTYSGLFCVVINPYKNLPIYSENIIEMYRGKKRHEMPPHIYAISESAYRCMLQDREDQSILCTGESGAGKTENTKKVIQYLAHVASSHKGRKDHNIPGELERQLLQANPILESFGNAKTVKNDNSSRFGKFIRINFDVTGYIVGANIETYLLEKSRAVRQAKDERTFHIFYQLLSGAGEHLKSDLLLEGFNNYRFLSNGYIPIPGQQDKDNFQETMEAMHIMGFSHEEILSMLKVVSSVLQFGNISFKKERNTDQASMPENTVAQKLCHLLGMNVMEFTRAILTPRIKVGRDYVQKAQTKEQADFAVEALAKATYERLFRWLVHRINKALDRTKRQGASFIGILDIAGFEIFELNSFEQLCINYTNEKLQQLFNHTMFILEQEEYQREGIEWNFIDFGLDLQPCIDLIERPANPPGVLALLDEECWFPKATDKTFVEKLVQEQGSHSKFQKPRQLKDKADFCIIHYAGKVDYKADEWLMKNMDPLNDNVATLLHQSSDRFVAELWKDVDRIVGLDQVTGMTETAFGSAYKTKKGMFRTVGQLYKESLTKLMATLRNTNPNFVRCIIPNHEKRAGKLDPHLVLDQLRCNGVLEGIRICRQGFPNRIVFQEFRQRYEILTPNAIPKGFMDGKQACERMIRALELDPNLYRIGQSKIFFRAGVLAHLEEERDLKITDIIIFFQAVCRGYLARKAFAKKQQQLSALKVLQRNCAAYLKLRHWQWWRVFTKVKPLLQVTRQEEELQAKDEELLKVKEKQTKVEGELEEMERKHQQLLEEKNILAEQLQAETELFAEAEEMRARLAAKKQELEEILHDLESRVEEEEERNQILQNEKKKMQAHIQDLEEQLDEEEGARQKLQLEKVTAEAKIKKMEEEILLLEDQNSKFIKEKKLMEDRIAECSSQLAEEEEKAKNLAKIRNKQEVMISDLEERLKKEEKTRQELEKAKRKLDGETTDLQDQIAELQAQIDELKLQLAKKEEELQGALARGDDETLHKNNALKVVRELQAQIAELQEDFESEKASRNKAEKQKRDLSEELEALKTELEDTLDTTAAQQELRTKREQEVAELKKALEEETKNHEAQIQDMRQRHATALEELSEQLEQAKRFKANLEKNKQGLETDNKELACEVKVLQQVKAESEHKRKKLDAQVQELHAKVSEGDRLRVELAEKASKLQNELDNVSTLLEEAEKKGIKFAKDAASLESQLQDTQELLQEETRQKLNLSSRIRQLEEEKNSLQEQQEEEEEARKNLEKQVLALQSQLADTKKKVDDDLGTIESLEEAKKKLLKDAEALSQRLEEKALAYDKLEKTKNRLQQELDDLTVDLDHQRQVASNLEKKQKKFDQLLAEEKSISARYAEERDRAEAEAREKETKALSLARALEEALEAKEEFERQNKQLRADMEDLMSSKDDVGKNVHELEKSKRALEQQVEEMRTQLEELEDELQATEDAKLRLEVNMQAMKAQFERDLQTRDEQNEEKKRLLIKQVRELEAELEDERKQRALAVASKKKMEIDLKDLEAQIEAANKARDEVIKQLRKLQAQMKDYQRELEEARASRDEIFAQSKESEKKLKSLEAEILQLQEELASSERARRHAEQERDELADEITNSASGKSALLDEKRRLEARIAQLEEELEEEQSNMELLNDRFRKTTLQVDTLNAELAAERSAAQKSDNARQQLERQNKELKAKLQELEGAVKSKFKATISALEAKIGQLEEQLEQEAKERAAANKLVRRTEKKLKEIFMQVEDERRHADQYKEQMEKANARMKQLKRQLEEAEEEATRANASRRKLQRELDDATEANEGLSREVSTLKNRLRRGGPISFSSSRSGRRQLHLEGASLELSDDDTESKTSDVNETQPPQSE
UniProt Q9BPX3, whole entry, looked up: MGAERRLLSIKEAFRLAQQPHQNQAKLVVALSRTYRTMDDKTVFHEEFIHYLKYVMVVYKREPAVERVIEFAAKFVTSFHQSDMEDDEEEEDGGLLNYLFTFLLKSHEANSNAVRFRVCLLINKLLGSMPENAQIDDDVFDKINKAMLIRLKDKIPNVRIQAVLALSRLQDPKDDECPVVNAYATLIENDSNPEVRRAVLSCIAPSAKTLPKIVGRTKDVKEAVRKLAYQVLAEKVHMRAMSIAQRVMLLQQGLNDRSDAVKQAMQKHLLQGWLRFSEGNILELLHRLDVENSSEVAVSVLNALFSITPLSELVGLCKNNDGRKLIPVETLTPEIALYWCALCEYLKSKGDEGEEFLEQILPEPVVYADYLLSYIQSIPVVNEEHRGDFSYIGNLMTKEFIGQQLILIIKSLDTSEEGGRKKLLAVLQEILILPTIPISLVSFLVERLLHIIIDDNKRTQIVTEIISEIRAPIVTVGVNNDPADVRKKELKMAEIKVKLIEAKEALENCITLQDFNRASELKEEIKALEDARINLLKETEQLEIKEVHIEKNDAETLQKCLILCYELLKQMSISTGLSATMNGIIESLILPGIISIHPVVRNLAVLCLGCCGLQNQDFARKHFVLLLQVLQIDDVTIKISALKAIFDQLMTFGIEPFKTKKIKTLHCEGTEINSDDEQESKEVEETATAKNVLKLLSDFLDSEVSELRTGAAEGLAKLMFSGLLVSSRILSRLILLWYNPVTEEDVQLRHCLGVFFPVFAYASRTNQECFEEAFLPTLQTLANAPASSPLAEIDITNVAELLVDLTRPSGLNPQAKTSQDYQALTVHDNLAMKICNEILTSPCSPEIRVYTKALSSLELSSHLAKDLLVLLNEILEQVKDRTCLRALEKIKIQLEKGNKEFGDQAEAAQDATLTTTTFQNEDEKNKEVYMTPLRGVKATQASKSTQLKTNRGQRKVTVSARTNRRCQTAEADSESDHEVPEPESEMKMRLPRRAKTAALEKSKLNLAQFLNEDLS
UniProt Q68D85: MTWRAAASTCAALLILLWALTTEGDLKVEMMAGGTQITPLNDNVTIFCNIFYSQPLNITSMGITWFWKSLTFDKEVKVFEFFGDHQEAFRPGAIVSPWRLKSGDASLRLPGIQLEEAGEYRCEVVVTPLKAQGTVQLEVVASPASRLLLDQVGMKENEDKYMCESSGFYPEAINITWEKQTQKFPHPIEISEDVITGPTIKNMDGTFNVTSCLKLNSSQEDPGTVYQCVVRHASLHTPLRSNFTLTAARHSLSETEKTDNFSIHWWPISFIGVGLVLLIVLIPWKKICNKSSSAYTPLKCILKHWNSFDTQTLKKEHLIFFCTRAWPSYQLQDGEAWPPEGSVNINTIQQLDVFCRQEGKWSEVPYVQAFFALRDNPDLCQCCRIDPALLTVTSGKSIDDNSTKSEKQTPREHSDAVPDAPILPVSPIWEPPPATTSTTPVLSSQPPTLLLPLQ
UniProt Q99747: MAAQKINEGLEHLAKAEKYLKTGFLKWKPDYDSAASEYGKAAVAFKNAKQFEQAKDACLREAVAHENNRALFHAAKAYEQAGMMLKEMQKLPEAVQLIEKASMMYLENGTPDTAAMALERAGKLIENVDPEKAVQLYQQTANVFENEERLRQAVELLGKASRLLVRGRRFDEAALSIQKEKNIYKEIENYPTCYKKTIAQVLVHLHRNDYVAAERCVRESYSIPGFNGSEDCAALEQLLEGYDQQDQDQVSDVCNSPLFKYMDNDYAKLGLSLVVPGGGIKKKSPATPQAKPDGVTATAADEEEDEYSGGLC
UniProt Q147X3: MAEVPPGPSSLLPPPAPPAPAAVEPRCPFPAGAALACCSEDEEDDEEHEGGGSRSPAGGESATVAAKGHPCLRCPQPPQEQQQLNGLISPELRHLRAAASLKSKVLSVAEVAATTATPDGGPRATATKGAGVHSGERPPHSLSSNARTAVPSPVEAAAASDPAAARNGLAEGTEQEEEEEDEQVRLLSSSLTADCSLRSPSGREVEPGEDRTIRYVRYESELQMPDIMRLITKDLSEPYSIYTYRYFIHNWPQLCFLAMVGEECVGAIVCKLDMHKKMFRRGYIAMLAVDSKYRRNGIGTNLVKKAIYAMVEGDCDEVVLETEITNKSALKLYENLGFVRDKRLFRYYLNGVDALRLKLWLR
UniProt Q969V5: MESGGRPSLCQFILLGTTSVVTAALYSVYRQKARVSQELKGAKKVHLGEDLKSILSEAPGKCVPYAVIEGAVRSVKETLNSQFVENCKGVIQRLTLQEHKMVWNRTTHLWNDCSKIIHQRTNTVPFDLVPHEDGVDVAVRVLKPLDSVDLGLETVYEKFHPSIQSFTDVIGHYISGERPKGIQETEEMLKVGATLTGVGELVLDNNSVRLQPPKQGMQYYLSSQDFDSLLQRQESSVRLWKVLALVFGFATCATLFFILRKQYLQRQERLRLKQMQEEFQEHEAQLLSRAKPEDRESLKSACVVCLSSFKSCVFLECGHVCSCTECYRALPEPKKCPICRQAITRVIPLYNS

[1] = compound: CCCS(=O)(=O)Nc1ccc(F)c(C(=O)c2c[nH]c3ncc(Cl)cc23)c1F
Summary of the method: as §1

barasertib = compound: CCN(CCCOc1ccc2c(Nc3cc(CC(=O)Nc4cccc(F)c4)[nH]n3)ncnc2c1)CCOP(=O)(O)O [barasertib]
Summary of the method: as §1

[2] = compound: CC[C@@H]1C(=O)N(C)c2cnc(Nc3ccc(C(=O)NC4CCN(C)CC4)cc3OC)nc2N1C1CCCC1
Summary of the method: as §1

volasertib = compound: CC[C@@H]1C(=O)N(C)c2cnc(Nc3ccc(C(=O)N[C@H]4CC[C@H](N5CCN(CC6CC6)CC5)CC4)cc3OC)nc2N1C(C)C [volasertib]
Summary of the method: as §1

[3] = compound: CCn1c(C(=O)N(C2CC2)C2CC2)cc2c3c(ncn3C)c(Nc3cc(C)n(C)n3)nc21
Summary of the method: as §1

[4] = compound: CCn1cc(-c2ccnc3[nH]c(-c4cccc(CN(C)C)c4)cc23)c(-c2ccc(NC(=O)N(C)C)cc2)n1
Summary of the method: as §1

[5] = compound: CN1CCC(CNc2ccc3ncc(-c4cccc(OC(F)(F)F)c4)n3n2)CC1
Summary of the method: as §1

saracatinib = compound: CN1CCN(CCOc2cc(OC3CCOCC3)c3c(Nc4c(Cl)ccc5c4OCO5)ncnc3c2)CC1 [saracatinib]
Summary of the method: as §1

sotrastaurin = compound: CN1CCN(c2nc(C3=C(c4c[nH]c5ccccc45)C(=O)NC3=O)c3ccccc3n2)CC1 [sotrastaurin]
Summary of the method: as §1

alvocidib = compound: CN1CC[C@H](c2c(O)cc(O)c3c(=O)cc(-c4ccccc4Cl)oc23)[C@H](O)C1 [alvocidib]
Summary of the method: as §1

Tubastatin A = compound: CN1CCc2c(c3ccccc3n2Cc2ccc(C(=O)NO)cc2)C1 [Tubastatin A]
Summary of the method: as §1

[6] = compound: CNC(=O)C1=CC=CC=C1NC2=NC(=NC=C2Cl)NC3=C(C=C(C=C3)N4CCOCC4)OC
Summary of the method: as §1

defactinib = compound: CNC(=O)c1ccc(Nc2ncc(C(F)(F)F)c(NCc3nccnc3N(C)S(C)(=O)=O)n2)cc1 [defactinib]
Summary of the method: as §1

[7] = compound: CNc1nc(-c2ccc3c(N)n[nH]c3c2)cc(N2C[C@@H](C(=O)NC3CCCCC3)CC[C@H]2C)n1
Summary of the method: as §1

encorafenib = compound: COC(=O)N[C@@H](C)CNc1nccc(-c2cn(C(C)C)nc2-c2cc(Cl)cc(NS(C)(=O)=O)c2F)n1 [encorafenib]
Summary of the method: as §1

[8] = compound: COC(=O)[C@H](CCSC)NC(=O)C1=C(C=C(C=C1)NC[C@H](CS)N)C2=CC=CC=C2
Summary of the method: as §1

alisertib = compound: COc1cc(Nc2ncc3c(n2)-c2ccc(Cl)cc2C(c2c(F)cccc2OC)=NC3)ccc1C(=O)O [alisertib]
Summary of the method: as §1

[9] = compound: COc1cc2nc(-c3cc(F)ccc3O)nc(N[C@@H]3CNC[C@H]3C(C)(C)O)c2cc1OC
Summary of the method: as §1

gefitinib = compound: COc1cc2ncnc(Nc3ccc(F)c(Cl)c3)c2cc1OCCCN1CCOCC1 [gefitinib]
Summary of the method: as §1

Measured: log2 fold change

MYL6B (UniProt P14649)
inactive: vemurafenib 0.018 | [1] 0.004 | barasertib -0.002 | [2] -0.008 | volasertib 0.024 | [3] 0.02 | [4] 0.043 | [5] -0.025 | saracatinib 0.025 | sotrastaurin 0.008 | alvocidib -0.006 | Tubastatin A 0.003 | [6] 0.01 | defactinib 0.037 | [7] -0.008 | encorafenib -0.003 | [8] -0.034 | alisertib -0.027 | [9] -0.003 | gefitinib 0.001

NAP1L1 (UniProt P55209)
inactive: vemurafenib -0.001 | [1] 0.004 | barasertib -0.102 | [2] 0.025 | volasertib -0.019 | [3] 0.024 | [4] 0.218 | [5] -0.031 | saracatinib -0.003 | sotrastaurin 0.007 | alvocidib 0.003 | Tubastatin A 0.035 | [6] -0.013 | defactinib 0.004 | [7] 0.018 | encorafenib 0.008 | [8] 0.012 | alisertib 0.008 | [9] -0.097 | gefitinib 0.038

NCOR2 (UniProt C9J0Q5)
inactive: vemurafenib 0.006 | [1] 0.021 | barasertib 0.024 | [2] 0.009 | volasertib 0.009 | [3] 0.056 | [4] 0.019 | [5] 0.036 | saracatinib -0.026 | sotrastaurin 0.032 | alvocidib 0.024 | Tubastatin A -0.035 | [6] -0.013 | defactinib 0.045 | [7] -0.001 | encorafenib -0.002 | [8] 0.006 | alisertib 0.036 | [9] 0.017 | gefitinib 0.049

MUCL1 (UniProt Q96DR8)
inactive: vemurafenib -0.202 | [1] -0.242 | barasertib -0.057 | [2] -0.214 | volasertib -0.174 | [3] -0.169 | [4] 0.146 | [5] -0.052 | saracatinib -0.003 | sotrastaurin -0.275 | alvocidib 0.231 | Tubastatin A 0.25 | [6] -0.273 | defactinib 0.36 | [7] -0.682 | encorafenib -0.43 | [8] 0.555 | alisertib -0.02 | [9] -0.121 | gefitinib 0.266

NADK (UniProt O95544)
inactive: vemurafenib -0.018 | [1] -0.002 | barasertib 0.056 | [2] 0.017 | volasertib 0.012 | [3] 0.002 | [4] -0.002 | [5] 0.047 | saracatinib 0.019 | sotrastaurin -0.019 | alvocidib -0.003 | Tubastatin A -0.022 | [6] 0.056 | defactinib 0.015 | [7] 0.025 | encorafenib -0.008 | [8] -0.02 | alisertib -0.004 | [9] 0 | gefitinib -0.034

NCBP3 (UniProt Q53F19)
inactive: vemurafenib -0.074 | [1] -0.008 | barasertib 0 | [2] -0.021 | volasertib -0.042 | [3] -0.036 | [4] -0.01 | [5] -0.01 | saracatinib -0.109 | sotrastaurin -0.018 | alvocidib -0.034 | Tubastatin A 0.009 | [6] 0.076 | defactinib 0.09 | [7] 0.015 | encorafenib 0.036 | [8] 0.069 | alisertib -0.03 | [9] -0.035 | gefitinib 0.01

MYCBP (UniProt Q99417)
active: [4] -0.589
inactive: vemurafenib -0.001 | [1] 0 | barasertib 0.16 | [2] -0.003 | volasertib 0.044 | [3] -0.007 | [5] 0.189 | saracatinib 0.021 | sotrastaurin 0.035 | alvocidib -0.244 | Tubastatin A 0.045 | [6] -0.02 | defactinib 0.022 | [7] -0.031 | encorafenib 0.005 | [8] -0.069 | alisertib 0.022 | [9] -0.001 | gefitinib -0.029

Copied from the entries so far (two entries):
NCOR2 (UniProt C9J0Q5)
inactive: vemurafenib 0.006 | [1] 0.021 | barasertib 0.024 | [2] 0.009 | volasertib 0.009 | [3] 0.056 | [4] 0.019 | [5] 0.036 | saracatinib -0.026 | sotrastaurin 0.032 | alvocidib 0.024 | Tubastatin A -0.035 | [6] -0.013 | defactinib 0.045 | [7] -0.001 | encorafenib -0.002 | [8] 0.006 | alisertib 0.036 | [9] 0.017 | gefitinib 0.049

MUCL1 (UniProt Q96DR8)
inactive: vemurafenib -0.202 | [1] -0.242 | barasertib -0.057 | [2] -0.214 | volasertib -0.174 | [3] -0.169 | [4] 0.146 | [5] -0.052 | saracatinib -0.003 | sotrastaurin -0.275 | alvocidib 0.231 | Tubastatin A 0.25 | [6] -0.273 | defactinib 0.36 | [7] -0.682 | encorafenib -0.43 | [8] 0.555 | alisertib -0.02 | [9] -0.121 | gefitinib 0.266

Following part.

NCBP2 (UniProt P52298)
inactive: vemurafenib 0.039 | [1] -0.002 | barasertib -0.025 | [2] 0.003 | volasertib -0.009 | [3] 0.011 | [4] 0.002 | [5] -0.035 | saracatinib -0.047 | sotrastaurin 0.034 | alvocidib 0.007 | Tubastatin A -0.005 | [6] -0.085 | defactinib -0.043 | [7] -0.077 | encorafenib -0.014 | [8] -0.059 | alisertib 0.001 | [9] 0.014 | gefitinib 0.001

MYH10 isoform 3 (UniProt P35580)
inactive: vemurafenib 0.007 | [1] 0.063 | barasertib -0.003 | [2] 0.005 | volasertib -0.034 | [3] -0.019 | [4] 0.019 | [5] 0.005 | saracatinib 0.011 | sotrastaurin 0.01 | alvocidib 0.002 | Tubastatin A 0.001 | [6] -0.007 | defactinib -0.019 | [7] 0.011 | encorafenib -0.008 | [8] -0.018 | alisertib -0.005 | [9] 0.025 | gefitinib -0.007

NCAPG (UniProt Q9BPX3)
inactive: vemurafenib -0.013 | [1] 0.021 | barasertib 0.018 | [2] -0.057 | volasertib -0.023 | [3] 0.015 | [4] -0.05 | [5] -0.024 | saracatinib 0.001 | sotrastaurin -0.011 | alvocidib 0.003 | Tubastatin A -0.113 | [6] 0.011 | defactinib 0.024 | [7] 0.01 | encorafenib -0.01 | [8] 0.094 | alisertib 0.007 | [9] -0.01 | gefitinib 0.003

NCR3LG1 (UniProt Q68D85)
inactive: vemurafenib 0.045 | [1] -0.01 | barasertib 0 | [2] 0.066 | volasertib 0.045 | [3] -0.025 | [4] -0.067 | [5] 0.089 | saracatinib 0.017 | sotrastaurin 0.015 | alvocidib 0.044 | Tubastatin A 0.007 | [6] -0.034 | defactinib -0.051 | [7] -0.013 | encorafenib -0.041 | [8] -0.06 | alisertib -0.007 | [9] -0.021 | gefitinib 0.038

NAPG (UniProt Q99747)
inactive: vemurafenib 0.001 | [1] 0.001 | barasertib -0.018 | [2] 0.018 | volasertib 0.022 | [3] 0 | [4] 0.016 | [5] -0.023 | saracatinib -0.009 | sotrastaurin -0.043 | alvocidib 0.01 | Tubastatin A -0.01 | [6] 0.005 | defactinib -0.025 | [7] 0.011 | encorafenib -0.005 | [8] -0.009 | alisertib 0.036 | [9] 0.021 | gefitinib -0.001

NCKIPSD (UniProt Q9NZQ3)
inactive: vemurafenib 0.036 | [1] 0.005 | barasertib 0.05 | [2] -0.051 | volasertib -0.071 | [3] 0.066 | [4] -0.03 | [5] -0.029 | saracatinib -0.012 | sotrastaurin 0.015 | alvocidib 0.015 | Tubastatin A -0.12 | [6] -0.015 | defactinib 0.059 | [7] -0.048 | encorafenib 0.072 | [8] -0.007 | alisertib 0.024 | [9] 0.013 | gefitinib 0.021

NAP1L1 isoform 3 (UniProt P55209)
inactive: vemurafenib 0.323 | [1] -0.066 | barasertib 0.105 | [2] 0.015 | volasertib -0.225 | [3] -0.103 | [4] -0.514 | [5] 0.1 | saracatinib 0.042 | sotrastaurin 0.087 | alvocidib -0.203 | Tubastatin A 0.166 | [6] 0.072 | defactinib -0.155 | [7] 0.065 | encorafenib -0.115 | [8] 0.067 | alisertib 0.016 | [9] -0.061 | gefitinib 0.125

NAA30 (UniProt Q147X3)
inactive: vemurafenib 0.001 | [1] 0.009 | barasertib 0.037 | [2] 0.043 | volasertib 0.012 | [3] -0.058 | [4] -0.022 | [5] 0.043 | saracatinib -0.003 | sotrastaurin 0.045 | alvocidib -0.03 | Tubastatin A 0.051 | [6] -0.023 | defactinib 0.002 | [7] 0.023 | encorafenib -0.032 | [8] 0.008 | alisertib 0.039 | [9] -0.066 | gefitinib 0.015

MUL1 (UniProt Q969V5)
inactive: vemurafenib 0.023 | [1] 0.009 | barasertib 0.025 | [2] -0.007 | volasertib -0.031 | [3] -0.016 | [4] 0.176 | [5] -0.044 | saracatinib 0.047 | sotrastaurin 0.007 | alvocidib -0.008 | Tubastatin A 0.073 | [6] -0.037 | defactinib 0.027 | [7] -0.001 | encorafenib 0.008 | [8] -0.014 | alisertib -0.012 | [9] -0.005 | gefitinib 0.024

— the supplement of paper PMC10849652
